Data on 2 substances can be found in paper PMC6110743.

Sequences of proteins named here, by UniProt entry; tags and fusion partners are left off.
UniProt Q15286: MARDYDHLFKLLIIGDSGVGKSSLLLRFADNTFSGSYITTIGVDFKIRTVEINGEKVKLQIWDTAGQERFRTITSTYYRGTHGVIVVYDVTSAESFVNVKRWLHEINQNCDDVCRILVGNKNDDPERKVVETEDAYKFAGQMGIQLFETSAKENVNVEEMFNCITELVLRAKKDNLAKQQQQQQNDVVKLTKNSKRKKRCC
UniProt Q5S007: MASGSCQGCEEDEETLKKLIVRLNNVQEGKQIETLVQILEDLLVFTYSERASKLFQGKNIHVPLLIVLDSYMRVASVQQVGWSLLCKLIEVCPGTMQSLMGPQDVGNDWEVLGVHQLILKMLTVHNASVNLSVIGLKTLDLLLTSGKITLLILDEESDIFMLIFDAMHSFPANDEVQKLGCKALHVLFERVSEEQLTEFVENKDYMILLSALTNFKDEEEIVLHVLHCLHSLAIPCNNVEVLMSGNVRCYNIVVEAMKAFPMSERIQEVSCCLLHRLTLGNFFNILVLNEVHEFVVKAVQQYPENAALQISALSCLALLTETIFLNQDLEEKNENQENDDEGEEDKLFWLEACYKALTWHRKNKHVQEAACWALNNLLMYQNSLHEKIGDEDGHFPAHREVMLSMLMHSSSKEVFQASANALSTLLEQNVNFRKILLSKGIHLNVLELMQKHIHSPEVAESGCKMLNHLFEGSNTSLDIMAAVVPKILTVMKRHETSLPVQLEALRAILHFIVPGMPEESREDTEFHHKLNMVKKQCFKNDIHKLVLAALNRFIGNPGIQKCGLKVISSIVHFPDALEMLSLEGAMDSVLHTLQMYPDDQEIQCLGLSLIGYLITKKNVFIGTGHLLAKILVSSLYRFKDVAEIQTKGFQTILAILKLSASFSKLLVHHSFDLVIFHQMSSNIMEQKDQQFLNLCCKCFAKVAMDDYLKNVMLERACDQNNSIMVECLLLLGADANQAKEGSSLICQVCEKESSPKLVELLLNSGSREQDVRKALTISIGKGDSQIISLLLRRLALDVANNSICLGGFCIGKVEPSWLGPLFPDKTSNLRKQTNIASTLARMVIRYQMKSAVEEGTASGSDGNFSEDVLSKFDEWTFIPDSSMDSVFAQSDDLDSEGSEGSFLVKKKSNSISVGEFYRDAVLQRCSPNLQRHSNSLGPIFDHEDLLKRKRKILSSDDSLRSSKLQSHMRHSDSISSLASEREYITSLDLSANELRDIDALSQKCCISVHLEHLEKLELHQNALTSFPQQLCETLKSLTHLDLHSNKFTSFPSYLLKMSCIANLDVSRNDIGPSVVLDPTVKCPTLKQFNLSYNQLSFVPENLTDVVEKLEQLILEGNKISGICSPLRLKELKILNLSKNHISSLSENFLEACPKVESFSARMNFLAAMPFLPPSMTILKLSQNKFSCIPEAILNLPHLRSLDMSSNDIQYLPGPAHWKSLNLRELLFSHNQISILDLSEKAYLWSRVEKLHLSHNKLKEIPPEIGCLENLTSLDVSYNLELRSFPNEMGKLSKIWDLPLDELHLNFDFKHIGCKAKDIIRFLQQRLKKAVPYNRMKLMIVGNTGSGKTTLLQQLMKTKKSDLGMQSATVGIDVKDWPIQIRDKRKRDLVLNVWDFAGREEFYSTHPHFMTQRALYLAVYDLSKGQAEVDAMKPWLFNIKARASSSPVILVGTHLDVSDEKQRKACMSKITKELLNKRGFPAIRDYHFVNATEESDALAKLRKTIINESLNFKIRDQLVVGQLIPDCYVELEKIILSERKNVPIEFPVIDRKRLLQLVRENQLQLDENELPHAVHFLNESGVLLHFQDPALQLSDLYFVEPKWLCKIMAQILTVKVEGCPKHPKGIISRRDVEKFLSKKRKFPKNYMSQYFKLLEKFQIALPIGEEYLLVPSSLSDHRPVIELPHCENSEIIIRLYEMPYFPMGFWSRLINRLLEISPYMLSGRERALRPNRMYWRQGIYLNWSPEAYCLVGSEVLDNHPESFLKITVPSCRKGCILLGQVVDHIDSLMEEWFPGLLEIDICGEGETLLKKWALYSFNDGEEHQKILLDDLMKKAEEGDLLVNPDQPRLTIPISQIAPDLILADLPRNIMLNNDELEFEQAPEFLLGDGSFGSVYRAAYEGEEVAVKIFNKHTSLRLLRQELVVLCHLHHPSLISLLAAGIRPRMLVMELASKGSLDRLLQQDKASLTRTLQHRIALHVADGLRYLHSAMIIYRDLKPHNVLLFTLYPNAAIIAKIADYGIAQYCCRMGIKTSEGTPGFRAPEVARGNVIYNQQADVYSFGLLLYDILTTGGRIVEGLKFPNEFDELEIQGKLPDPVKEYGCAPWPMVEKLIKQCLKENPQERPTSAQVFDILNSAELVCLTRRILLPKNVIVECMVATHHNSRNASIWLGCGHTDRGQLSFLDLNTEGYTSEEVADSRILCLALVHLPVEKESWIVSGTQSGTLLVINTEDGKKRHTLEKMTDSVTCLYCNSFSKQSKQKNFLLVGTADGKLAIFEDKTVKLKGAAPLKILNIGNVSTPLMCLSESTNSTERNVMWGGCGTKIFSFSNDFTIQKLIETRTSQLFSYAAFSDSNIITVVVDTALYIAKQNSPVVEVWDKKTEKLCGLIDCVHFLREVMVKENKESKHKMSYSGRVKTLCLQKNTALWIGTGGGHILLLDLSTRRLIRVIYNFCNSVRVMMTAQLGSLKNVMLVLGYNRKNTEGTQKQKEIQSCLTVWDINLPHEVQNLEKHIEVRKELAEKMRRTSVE

For assay [1], the target named is HA-tagged human RAB35 (human) (UniProt Q15286). The assay is described as follows: co-IP; cell lysates incubated with 3F10 antibody against the HA tag (or control IgG) overnight at 4 °C, protein A/G agarose 2 h at 4 °C, RIPA washes; eluted LRRK2 detected by western blotting. (In western blotting, separated proteins are transferred to a membrane and probed.)
The target of assay [2] is myc-6x histidine tagged LRRK2 (leucine-rich repeat kinase 2), wild type (human) (UniProt Q5S007). Kind of assay: pull-down; lysates of SH-SY5Y cells overexpressing myc-6x histidine tagged LRRK2 loaded on Ni-NTA agarose overnight at 4 °C; washed with 1% Triton X-100 and 20, 30, 50 mM imidazole in PBS; eluted RAB35 detected by western blotting.

Results are given in words; binding and its absence hold for the method and conditions named. In cells and extracts the contact can be indirect. Some entries that bind do so weakly or less than the wild type.

In the case of “myc-6x histidine tagged LRRK2 (leucine-rich repeat kinase 2), wild type (from UniProt Q5S007 1-2527) (enzyme)”, in assay [1], the binding entry is given as “binds”.
Take “HA-tagged human RAB35 (from UniProt Q15286 1-201)”: the binding result in assay [2] is given as “binds”.
